Results: article PMC4739330
Results are given in words; binding and its absence hold for the method and conditions named. Binding seen in cells or lysates may run through a third protein. Some entries that bind do so weakly or less than the wild type.

Sequences of proteins named here, by UniProt entry; tags and fusion partners are left off.
UniProt Q06945: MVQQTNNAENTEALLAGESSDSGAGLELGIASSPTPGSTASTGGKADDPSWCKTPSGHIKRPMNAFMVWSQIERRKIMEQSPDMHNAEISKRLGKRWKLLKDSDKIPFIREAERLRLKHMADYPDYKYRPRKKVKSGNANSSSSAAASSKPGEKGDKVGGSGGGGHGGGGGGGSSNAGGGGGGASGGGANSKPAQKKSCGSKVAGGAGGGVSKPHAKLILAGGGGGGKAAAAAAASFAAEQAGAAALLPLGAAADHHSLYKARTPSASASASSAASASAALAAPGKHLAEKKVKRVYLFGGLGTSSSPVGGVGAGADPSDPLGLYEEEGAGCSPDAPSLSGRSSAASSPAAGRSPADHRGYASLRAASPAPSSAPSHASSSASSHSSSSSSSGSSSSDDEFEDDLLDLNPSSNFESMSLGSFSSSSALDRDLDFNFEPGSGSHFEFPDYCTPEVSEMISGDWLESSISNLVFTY
UniProt P35222: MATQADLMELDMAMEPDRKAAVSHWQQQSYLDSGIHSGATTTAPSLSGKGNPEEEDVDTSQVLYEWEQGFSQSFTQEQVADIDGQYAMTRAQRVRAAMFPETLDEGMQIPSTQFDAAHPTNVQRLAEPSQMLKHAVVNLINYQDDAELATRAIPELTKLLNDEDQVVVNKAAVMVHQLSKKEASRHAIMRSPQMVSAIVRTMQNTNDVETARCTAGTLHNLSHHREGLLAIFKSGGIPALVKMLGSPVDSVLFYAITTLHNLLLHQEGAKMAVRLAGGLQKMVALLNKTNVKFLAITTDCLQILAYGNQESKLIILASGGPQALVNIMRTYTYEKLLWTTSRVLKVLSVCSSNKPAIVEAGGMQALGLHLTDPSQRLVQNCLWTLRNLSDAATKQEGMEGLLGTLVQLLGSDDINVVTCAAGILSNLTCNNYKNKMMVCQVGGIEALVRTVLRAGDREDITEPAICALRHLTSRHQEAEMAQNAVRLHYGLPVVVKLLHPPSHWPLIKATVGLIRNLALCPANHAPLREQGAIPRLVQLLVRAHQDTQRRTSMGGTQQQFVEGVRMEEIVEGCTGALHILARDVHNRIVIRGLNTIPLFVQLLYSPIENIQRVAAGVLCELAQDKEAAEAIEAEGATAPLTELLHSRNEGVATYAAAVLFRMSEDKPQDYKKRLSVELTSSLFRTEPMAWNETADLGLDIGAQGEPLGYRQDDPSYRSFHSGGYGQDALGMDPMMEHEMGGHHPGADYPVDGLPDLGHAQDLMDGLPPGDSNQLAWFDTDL

Target: Sox4 (human (endogenous in Ishikawa, Hec251 and Hec6)) (UniProt Q06945)
Experiment: co-IP; lysates (TNE buffer: 10 mM Tris-HCl pH 7.6, 150 mM NaCl, 1 % NP-40, 1 mM EDTA) of Ishikawa, Hec251 and Hec6 cells cultured in STK2 for 5 days; precipitated with anti-Sox4 antibody and Protein G-Sepharose; blotted with anti-β-catenin and anti-Sox4

binding: binds weakly
Substance: β-catenin (from UniProt P35222 1-781)
